Results on 2 molecules are retold here after patent US20130237484A1.

By UniProt entry, the sequences of proteins in these tests, tags left out.
UniProt Q9HCE7: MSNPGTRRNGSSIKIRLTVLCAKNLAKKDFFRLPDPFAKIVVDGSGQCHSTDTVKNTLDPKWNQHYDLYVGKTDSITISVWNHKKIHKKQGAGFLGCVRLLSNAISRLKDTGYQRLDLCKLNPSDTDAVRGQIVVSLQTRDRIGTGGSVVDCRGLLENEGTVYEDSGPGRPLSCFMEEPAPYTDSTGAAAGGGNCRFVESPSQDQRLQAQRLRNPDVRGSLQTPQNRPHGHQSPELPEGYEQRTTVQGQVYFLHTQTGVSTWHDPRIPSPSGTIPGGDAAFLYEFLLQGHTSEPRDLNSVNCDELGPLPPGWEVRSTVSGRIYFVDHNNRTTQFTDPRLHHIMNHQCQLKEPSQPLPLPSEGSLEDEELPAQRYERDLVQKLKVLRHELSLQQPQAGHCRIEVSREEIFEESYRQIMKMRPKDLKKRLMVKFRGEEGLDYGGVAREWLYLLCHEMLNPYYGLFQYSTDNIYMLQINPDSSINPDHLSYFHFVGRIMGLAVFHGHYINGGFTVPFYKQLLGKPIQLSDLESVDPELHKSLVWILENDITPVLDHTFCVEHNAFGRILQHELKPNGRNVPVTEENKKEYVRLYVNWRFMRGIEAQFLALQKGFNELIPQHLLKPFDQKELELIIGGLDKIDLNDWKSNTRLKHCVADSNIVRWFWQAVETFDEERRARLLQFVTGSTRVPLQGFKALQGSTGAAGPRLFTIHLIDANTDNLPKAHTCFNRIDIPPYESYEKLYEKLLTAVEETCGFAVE

Assay [1] deals with human-derived Smurf1 protein (human) (UniProt Q9HCE7). Description: slot blot, Smurf1 on nitrocellulose, biotinylated peptide at 0.1 to 100 mM as printed, Extravidin/ECL detection; dot size increased from 0.1 mM to 100 mM.
The target is the same in assay [2]. Description: slot blot, Smurf1 on nitrocellulose, biotinylated peptide at 0.1 to 100 mM as printed, Extravidin/ECL detection; increase of dot size began at 10 mM.

Results are given in words; binding and its absence hold for the method and conditions named. Some binding calls cover weakened binding; strength is not graded here.

For GAPPPADSAP [bone differentiation inducing sequence (…) derived from LMP1, Comparative Example 2], the binding result in assay [1] is recorded as “binds”. Consider GAPPPADSAPSSRKKNPNCRRH (C-terminal amide (printed as -COONH2; synthesized on Rink resin)), for which the binding result in assay [2] was “binds”.
